Test results taken from patent publication US11090313B2, “Methods for inhibiting muscle atrophy” (UNIVERSITY OF IOWA RESEARCH FOUNDATION, priority 2010, dated 2021).

Assays:
C57BL/6 mice [1] = assay: Fasting-induced muscle atrophy in mice (i.p. dosing, 24 h fast); type: in vivo, mouse; conditions: i.p. twice, mg/kg: ursolic acid 200, oleanolic acid 200, metformin 250
Description: The mice were then fasted, and after 12 hours of fasting, the mice received a second dose of the compound or vehicle. After 24 hours of fasting, the blood glucose was measured and muscles were harvested. The data shown in FIGS. 6C-6H are means±SEM from ≤16 mice per condition. […] The effects of metformin and ursolic acid on fasting-induced muscle atrophy were also examined, i.e. the effect of 24 h fast (relative to ad lib feeding) on wet weight of lower hindlimb skeletal muscle (bilateral tibialis anterior (“TA” muscle), gastrocnemius, and soleus; see FIGS. 6E-6G). […] In FIGS. 6E-6H, each data point represents one mouse and the horizontal bars denote the means. In FIGS. 6C-6H, P-values were determined using unpaired t-tests.
Mice were then fasted, and after 12 hours of fasting, mice received a second dose of ursolic acid, oleanolic acid, or vehicle. After 24 hours of fasting, lower hindlimb skeletal muscles and liver were harvested and weighed.
To test this, food was withdrawn from mice, and then vehicle, ursolic acid (200 mg/kg) or tomatidine (50 mg/kg) were administered by i.p. injection. Twelve hours later, mice received another i.p. injection of vehicle or the same dose of ursolic acid or tomatidine. Twelve hours later, skeletal muscles were harvested and weighed. […] We next used the same protocol to compare the effects of vehicle (corn oil) and tomatidine (5, 15 and 50 mg/kg).

C57BL/6 mice [2] = assay: Dietary ursolic acid in standard chow: muscle, fat, organ weights, grip strength, plasma markers

SMILES | liver weight in fasted mice (C57BL/6 mice [1]) | food intake (C57BL/6 mice [2]; 0.27% ursolic acid in chow 4 weeks, then 48 h in CLAMS) | total body weight (C57BL/6 mice [2]; ursolic acid in standard chow, 7 weeks)
CN(C)C(=N)N=C(N)N [metformin, reference compound] | increased liver weight |  | 
CC1(C)CC[C@]2(C(=O)O)CC[C@]3(C)C(=CC[C@@H]4[C@@]5(C)CC[C@H](O)C(C)(C)[C@@H]5CC[C@]43C)[C@@H]2C1 [oleanolic acid, reference compound] | increased liver weight |  | 
C[C@H]1[C@H](C)CC[C@]2(C(=O)O)CC[C@]3(C)C(=CC[C@@H]4[C@@]5(C)CC[C@H](O)C(C)(C)[C@@H]5CC[C@]43C)[C@H]12 [ursolic acid] | but not liver weight | did not alter food intake | did not increase total body weight
